From paper doi:10.1101/2024.08.04.605933
No constants are given. Whether binding was seen depends on the method and setting. Some binding calls cover weakened binding; strength is not graded here. Tags and fused reporters may be left off the sequences shown.

Molecular target: T1, voltage dependent anion channel 2 (VDAC2) (human (endogenous in HeLa)), P45880
T1 chain: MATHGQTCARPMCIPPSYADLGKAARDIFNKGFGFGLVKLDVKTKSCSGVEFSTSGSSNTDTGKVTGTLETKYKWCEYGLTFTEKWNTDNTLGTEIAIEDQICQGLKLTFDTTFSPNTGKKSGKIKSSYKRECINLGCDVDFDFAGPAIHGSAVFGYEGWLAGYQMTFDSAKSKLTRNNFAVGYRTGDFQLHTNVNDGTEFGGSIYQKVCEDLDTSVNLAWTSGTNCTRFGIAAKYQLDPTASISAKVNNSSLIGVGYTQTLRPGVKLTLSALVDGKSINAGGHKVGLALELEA
Test: native gel or EMSA
Conditions: remark: other sources report otherwise

- binding: binds
B1: BCL-2 antagonist/killer (BAK), Q16611 1-211 (protein)
chain: MASGQGPGPPRQECGEPALPSASEEQVAQDTEEVFRSYVFYRHQQEQEAEGVAAPADPEMVTLPLQPSSTMGQVGRQLAIIGDDINRRYDSEFQTMLQHLQPTAENAYEYFTKIATSLFESGINWGRVVALLGFGYRLALHVYQHGLTGFLGQVTRFVVDFMLHHCIARWIAQRGGWVAALNLGNGPILNVLVVLGVVLLGQFVVRRFFKS
